Measured values from PubChem BioAssay AID2551 (National Center for Advancing Translational Sciences (NCATS), 2010).
Several values for one entry are separate records, joined by “and”; a condition that tells them apart may be missing. Identical values can stand only once. Out of some 310,000 compounds screened, about 17,000 (5.5%) were called active. Inconclusive means that the source gave no clear call. Such entries were picked first, then a sample of the others. Calls follow the shape of the dose curve; as a rule, active = well fitted inhibition curve with a large enough effect; inconclusive = small, poorly fitted or top-dose-only effect, or effect the other way; inactive = no such curve, though single readings can be large or run the other way. Potencies of inconclusive entries are doubtful fits and often do not repeat.

Amino acid sequences for entries named in this document (tags omitted). A change or cut given only in a name is not applied to a line headed by its entry.
UniProt P51450: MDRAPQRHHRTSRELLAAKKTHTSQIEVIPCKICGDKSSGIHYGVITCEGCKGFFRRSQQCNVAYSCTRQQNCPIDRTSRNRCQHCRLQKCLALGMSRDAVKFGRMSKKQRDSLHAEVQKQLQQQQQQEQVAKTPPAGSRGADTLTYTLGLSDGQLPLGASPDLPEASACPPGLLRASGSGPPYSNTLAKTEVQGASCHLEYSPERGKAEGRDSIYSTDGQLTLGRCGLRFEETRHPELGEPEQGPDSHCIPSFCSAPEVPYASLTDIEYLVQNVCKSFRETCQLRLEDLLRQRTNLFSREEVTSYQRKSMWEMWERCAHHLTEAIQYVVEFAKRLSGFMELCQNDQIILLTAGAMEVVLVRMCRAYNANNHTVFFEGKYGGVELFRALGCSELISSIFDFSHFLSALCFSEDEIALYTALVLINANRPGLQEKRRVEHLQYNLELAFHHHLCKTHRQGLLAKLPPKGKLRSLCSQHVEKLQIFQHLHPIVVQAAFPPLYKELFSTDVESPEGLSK

target: Nuclear receptor ROR-gamma (Mus musculus) (UniProt P51450); test: qHTS for inhibitors of ROR gamma transcriptional activity; settings: Drosophila S2 Gal4-RORgamma UAS-luciferase reporter, 20 h; activity change, negative = inhibition: at 53.6 µM (top of the series); also: nearly all actives have a fitted effect of over 60% in size
Summary of the method: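 Luciferase reporter read in Schneider cells carrying Gal4-RORγ (mouse) and UAS-Photinus luciferase; cells given compound 1 h before 700 uM copper sulfate induction, then incubated 20 h at ambient temperature.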
% is scaled to controls: 0 for no effect and ±100 for the full control effect; potency is read from the fitted curve at half-maximal effect.

SMILES | Potency | activity change, negative = inhibition
C=C(C)CSc1nnc([C@@H](N)Cc2c[nH]c3ccccc23)o1 | inconclusive: 22.4 µM [inhibitor, single point] | 
Cc1ccccc1N1CCN(Cc2ccc3c(c2)OCO3)CC1 | inconclusive: 17.8 µM [activator, single point] | 
CC(=O)Oc1ccccc1C(=O)Nc1ncc([N+](=O)[O-])s1 | inconclusive: 35.5 µM [inhibitor, single point] | 
COc1nc(NC(C)C)nc(N(C#N)CN2C(=O)c3ccccc3S2(=O)=O)n1 | inconclusive: 35.5 µM [inhibitor, single point] | 
O=C(c1ccc(CNS(=O)(=O)c2ccccc2)cc1)N1CCC2(CC1)OCCO2 | inconclusive: 3.98 µM [activator, full curve, poor fit] | 
COc1ccc(-n2c(/C=C/c3ccc(O)c(OC)c3)nc3ccccc3c2=O)cc1 |  | inactive: 24.2%
COC(=O)C(O)(c1ccc(NC(=S)NC(=O)c2ccccc2)cc1)C(F)(F)F (configuration not stated) | active: 10 µM | 
Cc1cc(/C=C2\C(=O)NC(=O)N(c3ccc(Br)cc3)C2=O)c(C)n1-c1cc(C(=O)O)cc(C(=O)O)c1 |  | inactive: -9.09%
CCC(=NCCc1ccccc1)c1c(O)n(C)c(=O)n(C)c1=O |  | inactive: 41.9%
CC(=O)O[C@H]1C[C@H](O[C@H]2[C@@H](O)CC(O[C@H]3[C@@H](O)C[C@H](O[C@H]4CC[C@@]5(C)[C@H](CC[C@@H]6[C@@H]5CC[C@]5(C)[C@@H](C7=CC(=O)OC7)CC[C@]65O)C4)O[C@@H]3C)O[C@@H]2C)O[C@H](C)[C@H]1O[C@@H]1O[C@H](CO)[C@@H](O)[C@H](O)[C@H]1O (some centres not stated) | inconclusive: 1 µM [inhibitor, full curve, poor fit] | 
Cc1ccc2c(c1)C1CN(C)CCC1N2C(=O)c1cn(-c2ccccc2)nc1-c1ccccc1 (configuration not stated) | inconclusive: 35.5 µM [inhibitor, single point] | 
O=P(O)(O)COc1ccccc1O |  | inactive: 0.269% [at 10 µM]
Cc1cc(C(=O)Nc2ccc(CC(=O)O)cc2)c(C)o1 | active: 11.2 µM | 
O=C(N/N=C/c1c(O)n(C2CCCCC2)c(=S)[nH]c1=O)c1ccccc1O | active: 3.98 µM | 
CN1C(=O)C(=Cc2ccc(N3CCOCC3)c([N+](=O)[O-])c2)C(=O)N(C)C1=O |  | inactive: 1.4%
Cc1c2ccncc2c(C)c2c1[nH]c1ccccc12 | active: 10 µM | 
O=c1[nH]c(CN2CC=C(c3ccccc3)CC2)nc2scc(-c3cccs3)c12 | inconclusive: 10 µM [inhibitor, partial curve] | 
O=P(OCCCl)(OCCCl)OCCCl |  | inactive: -0.933%
Nc1c(C(=O)OCc2ccccc2)c2nc3ccccc3nc2n1Cc1cccs1 | inconclusive: 20 µM [inhibitor, single point] | 
O=C1NC(=O)N(c2ccccc2)C(=O)/C1=C/c1ccc([N+](=O)[O-])s1 | inconclusive: 35.5 µM [inhibitor, single point] | 
CC(=NCc1ccc2c(c1)OCO2)c1c(O)n(-c2ccc(C)cc2)c(=O)[nH]c1=O |  | inactive: 18.9%
O=C1/C(=C/c2ccccc2Cl)N2CCC1CC2 |  | inactive: -2.55%
COc1ccc(F)cc1C(=O)C1CCCN(Cc2ccc(O)cc2)C1 (configuration not stated) | inconclusive: 0.282 µM [activator, partial curve, poor fit] | 
CC1CC(C)C(=O)[C@H](C(O)CC2CC(=O)NC(=O)C2)C1 (some centres not stated) | active: 0.316 µM | 

SMILES | Potency | activity change, negative = inhibition
CCON=O |  | inactive: -7.4%
Cc1ccccc1CCNCc1cc2cccc(C)c2[nH]c1=O | inconclusive: 3.98 µM [activator, single point] | 
O=C1NC(=O)N(c2ccccc2)C(=O)/C1=C/C=C/c1ccco1 | inconclusive: 3.98 µM [inhibitor, single point] | 
Nc1c2c(nc3sc4c(c13)CCCCC4)CCCC2 |  | inactive: -2.28%
C=Cn1ccnc1P(O)(=S)c1nc(C)c(CCOC(C)=O)s1 (configuration not stated) | active: 11.2 µM | 
CC/C(=C\C=C\[C@@H]1C=C[C@@H]2CCC[C@H]2[C@@H]1C(=O)c1ccc[nH]1)[C@@H]1O[C@@H]([C@@H](C)C(=O)O)CC[C@@H]1C | inconclusive: 31.6 µM [inhibitor, single point] | 
CC1(C)CC(=O)C(C=NCCN2CCN(C(=O)Cc3ccc(F)cc3)CC2)=C(O)C1 |  | inactive: 24.8%
CC1CC(C)CN(CC(=O)c2ccc(OC(F)F)cc2)C1 (configuration not stated) |  | inactive: -10.1%
c1csc(-c2nnc(Cc3cccc4ccccc34)o2)c1 | inconclusive: 11.2 µM [activator, single point] | 
CC1(C)COC(Nc2ccc(Cl)cc2)=N1 | inconclusive: 25.1 µM [inhibitor, single point] | 
O=C(CSC1c2ccccc2-c2ccccc21)N/N=C/c1ccccc1O | active: 12.6 µM | 
COc1ccc(-c2[nH]ncc2CNC(C)Cc2cccc(C)n2)cc1F (configuration not stated) | inconclusive: 35.5 µM [activator, single point] | 
S=c1[nH]nc(C2CC2)n1Cc1ccccc1 | inconclusive: 35.5 µM [inhibitor, single point] | 
O=C(NC1CN2CCC1CC2)c1cc(Cl)c([N+](=O)[O-])c2nc[nH]c12 (configuration not stated) | inconclusive: 11.2 µM [activator, partial curve] | 
O=C(O)c1cccc2c1NC(C(=O)O)C1CC(Sc3ccccc3[N+](=O)[O-])C(Cl)C21 (configuration not stated) | inconclusive: 12.6 µM [inhibitor, single point] | 
CCOC(=O)/C(=N\Nc1ccccc1)N1CC1 | inconclusive: 11.2 µM [activator, single point] | 
CC(C)NS(=O)(=O)c1ccc(OCC(=O)N2CCN(Cc3ccccc3)CC2)c(Cl)c1 | inconclusive: 4.47 µM [activator, partial curve] | 
O=C(Nc1cc(C(F)(F)F)cc(C(F)(F)F)c1)c1cc(Cl)ccc1O | active: 1 µM and active: 891 nM | 
COC(=O)c1ccc(COC(=O)c2nn(C)c(=O)c3ccccc23)cc1 | inconclusive: 5.62 µM [activator, partial curve] | 
CCSC1=NN1c1cc(C)nc(N)n1 |  | inactive: 5.67%
CC1(C)CSC(Nc2ccc(F)c(Cl)c2)=N1 | inconclusive: 12.6 µM [inhibitor, single point] | 
Cc1cccc(C)c1NC(=O)CN(C)CC(=O)Nc1ccc(C#N)c(Cl)c1 | inconclusive: 35.5 µM [activator, single point] | 
Cc1ccc(C(=O)Nc2nc3ccccc3n2CCN2CCCC2)cc1 | active: 2.51 µM | 
CN1C(=O)/C(=C\c2ccc(Br)s2)C(=O)NC1=S | inconclusive: 35.5 µM [inhibitor, single point] | 

SMILES | Potency | activity change, negative = inhibition
CN(C)c1nc(OCCNC(=O)COc2ccc(Cl)cc2Cl)nc(N2CCCCC2)n1 | inconclusive: 5.01 µM [activator, partial curve] | 
CCOC(=O)c1c(NC(NC(=O)CF)C(Cl)(Cl)Cl)sc2c1CCCC2 (configuration not stated) | inconclusive: 11.2 µM [activator, partial curve] | 
Cc1ccc2cc(CNCCc3ccccc3C)c(=O)[nH]c2c1 | inconclusive: 3.98 µM [activator, single point] | 
COc1ccc(C(=O)C2CCCN(C3CSCCSC3)C2)c(OC)c1 (configuration not stated) | inconclusive: 20 µM [inhibitor, single point] | 
CC(C)CCn1c(=O)c(C(=O)NCc2ccc3c(c2)OCO3)c(O)c2ccccc21 | inconclusive: 11.2 µM [inhibitor, partial curve, poor fit] | 
Cc1ccc(Sc2ccc(C=C3C(=O)N(C)C(=O)N(C)C3=O)o2)cc1 |  | inactive: 2.52%
O=C(N/N=C/c1c(O)n(C2CCCCC2)c(=S)[nH]c1=O)c1ccccc1 | active: 5.62 µM | 
C[C@@H]1C[C@H]2OC(=O)C3(CO3)[C@H]2[C@H](O)[C@]2(C)C(=O)C3OC3[C@@H]12 (some centres not stated) | active: 10 µM | 
Nc1ccccc1 |  | inactive: -1.51%
CN1CCC(O)(c2ccccc2)C2CCCC21 (configuration not stated) |  | inactive: -10.6%
Nc1nc2c(s1)CCCCCCCCCC2 | active: 11.2 µM | 
Cn1cnc([N+](=O)[O-])c1Sc1ccc([N+](=O)[O-])cc1 | active: 11.2 µM | 
Cc1ccccc1-n1c(O)c(/C=C2/C(c3ccccc3)=Nc3ccccc32)c(=O)[nH]c1=O | inconclusive: 12.6 µM [inhibitor, single point] | 
CCOC(=O)C1OC1(C)c1ccccc1 (configuration not stated) |  | inactive: 2.09%
O=c1c2ccccc2nc(/C=C\c2ccccc2[N+](=O)[O-])n1-c1ccccc1O | inconclusive: 31.6 µM [activator, single point] | 
Cc1cc(SCc2sc(-c3ccc(C(F)(F)F)c(F)c3)nc2C)ccc1OCC(=O)O | inactive and inconclusive: 20 µM [activator, single point] | 
Cc1ccc(S(=O)(=O)N[C@@H](CCCCN)C(=O)CCl)cc1 | inconclusive: 35.5 µM [inhibitor, single point] | 
CN(C[C@H](Cc1ccccc1)N(C[C@H](Cc1ccccc1)N(CCC(C)(C)C)N=O)N=O)N=O | inconclusive: 31.6 µM [activator, single point] | 
CN1C(=O)COc2c(C(=O)NC3CN4CCC3CC4)cc(Cl)cc21 (configuration not stated) | inactive | 
ClP(Cl)(Cl)(Cl)Cl |  | inactive: -26.1%
N#CCCC#N | inconclusive: 0.141 µM [inhibitor, partial curve, poor fit] | 
Cc1cc(C)cc(NC(=S)NC2CC3CCCC(C2)N3Cc2cccs2)c1 (configuration not stated) | active: 8.91 µM | 
CCn1c(=O)oc2cc(NC(=O)CCl)ccc21 | active: 11.2 µM | 
O=C1NC(=O)N(Cc2ccccc2)C(=O)/C1=C/C=C/c1ccco1 | inconclusive: 2.24 µM [activator, partial curve] | 
